Data reported in PubChem BioAssay AID743255 (National Center for Advancing Translational Sciences (NCATS), 2014).
The whole screen tested about 390,000 compounds, of which about 910 (0.23%) were called active. The shares of active, inactive and inconclusive entries below differ from those in the screen. Calls come from the whole dose curve; as a rule, active = well fitted inhibition curve with a large enough effect; inconclusive = small, poorly fitted or top-dose-only effect; inactive = no such curve, though single readings can be large or run the other way. Potencies beside an inconclusive call are fits to weak or partial responses and may not hold up.

Protein sequences, listed by entry. Tags and fused reporters are not part of them. Lines headed by an entry give the natural chain unless they say otherwise; changes in a name come on top.
UniProt O94782: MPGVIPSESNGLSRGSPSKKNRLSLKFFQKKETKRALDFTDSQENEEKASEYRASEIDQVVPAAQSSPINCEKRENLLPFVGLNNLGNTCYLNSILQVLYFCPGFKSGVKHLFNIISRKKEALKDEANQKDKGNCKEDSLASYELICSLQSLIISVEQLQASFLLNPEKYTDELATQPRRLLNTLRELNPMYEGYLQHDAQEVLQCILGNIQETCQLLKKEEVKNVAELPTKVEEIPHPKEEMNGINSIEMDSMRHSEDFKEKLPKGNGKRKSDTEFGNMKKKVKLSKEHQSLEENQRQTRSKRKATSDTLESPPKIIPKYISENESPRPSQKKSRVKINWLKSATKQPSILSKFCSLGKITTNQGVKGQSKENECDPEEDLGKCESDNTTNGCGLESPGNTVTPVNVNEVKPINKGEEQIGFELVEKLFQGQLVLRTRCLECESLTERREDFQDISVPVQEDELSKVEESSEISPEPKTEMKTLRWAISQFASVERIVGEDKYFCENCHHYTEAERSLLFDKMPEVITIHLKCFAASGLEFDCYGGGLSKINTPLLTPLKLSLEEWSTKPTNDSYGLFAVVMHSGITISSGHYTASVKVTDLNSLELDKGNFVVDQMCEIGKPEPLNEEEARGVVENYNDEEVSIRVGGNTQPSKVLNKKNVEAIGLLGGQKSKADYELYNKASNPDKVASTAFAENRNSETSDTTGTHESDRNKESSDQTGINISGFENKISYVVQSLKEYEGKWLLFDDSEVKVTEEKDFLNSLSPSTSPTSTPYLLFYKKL

Each molecule was assayed against Ubiquitin carboxyl-terminal hydrolase 1 (Homo sapiens) (UniProt O94782) (assay: Inhibitors of USP1/UAF1: Primary Screen). Conditions: recombinant USP1/UAF1, Ub-Rhodamine cleavage fluorescence; activity change, negative = inhibition: at 57.1 µM (top of the series).
In short: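 In this screen, compounds sit with the deubiquitinase complex (1nM) for 15 min at room temperature before Ub-Rho is added at 150nM final. Fluorescence rise is then followed for 6 reads every 60 seconds.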
% is set by controls: 0 for no effect and ±100 for the full control effect; potency is the fitted concentration of half-maximal effect.
Note: nearly all actives have a fitted effect of over 60% in size.

SMILES | Potency | activity change, negative = inhibition
Cc1ccc(CCNC(=O)c2ccc(CSCc3ccc(C)cc3)o2)cc1 | inconclusive: 141 µM [inhibitor, partial curve, poor fit] | 
COc1ccc(NC(=O)c2cc(-c3cc(C)cc(C)c3O)n[nH]2)cc1Cl | inconclusive: 44.7 µM [inhibitor, partial curve, poor fit] | 
COc1ccc(Nc2nc(-c3cccnc3)nc3ccccc23)cn1 | inconclusive: 35.5 µM [inhibitor, partial curve] | 
CN(CC(=O)N1CCc2ccccc2C1)S(=O)(=O)c1ccc2c(c1)c(=O)n(C)c(=O)n2C | inconclusive: 25.1 µM [inhibitor, partial curve] | 
C[C@@H]1Cn2cnc(C(=O)Nc3cccc(Cl)c3)c2C(=O)N1 | inconclusive: 0.282 µM [inhibitor, full curve, poor fit] | 
Cc1nnc2c3ccccc3nc(N3CCN(c4cccc(Cl)c4)CC3)n12 | inconclusive: 100 µM [inhibitor, partial curve] | 
COc1cccc(Oc2ccc(OC)cc2C(=O)O)c1 | inconclusive: 89.1 µM [inhibitor, partial curve, poor fit] | 
COc1ccc(N(CC(=O)N2CCN(c3ccccc3)CC2)S(=O)(=O)c2ccccc2)cc1 | inconclusive: 50.1 µM [inhibitor, partial curve, poor fit] | 
NS(=O)(=O)c1ccc(CNC(=S)Nc2ccc(Cl)c(Cl)c2)cc1 | inconclusive: 39.8 µM [inhibitor, partial curve, poor fit] | 
Cc1ccc(N(C(=O)c2cccc(C)c2)S(=O)(=O)c2ccc(Cl)cc2)cc1 |  | inactive: -10.8%
CCc1ccc(NC(=O)CN2C(=O)CCSc3ccc(S(=O)(=O)N4CCCC4)cc32)cc1 | inconclusive: 70.8 µM [inhibitor, partial curve, poor fit] | 
CC(C)(C)S(=O)(=O)N1C[C@@H]2CC/C=C\C/C=C\2[C@H]1CCO | inconclusive: 44.7 µM [inhibitor, partial curve, poor fit] | 
COc1ccc(NC(=O)/C(Cl)=C(/Cl)S(=O)Cc2ccccc2)cn1 (stereo not given) |  | inactive: -23.2%
CCN(CC)c1ccc(NC(=O)CC2Oc3ccccc3NC2=O)c(C)c1 (stereo not given) | inconclusive: 2 µM [inhibitor, partial curve] | 
Cc1nn2c(=O)cc(COC(=O)c3ccc(F)cc3)nc2s1 | inconclusive: 5.01 µM [inhibitor, partial curve, poor fit] | 
CCc1ccc(NC(=O)Cn2nnc(C(=O)Nc3cc(C)ccc3OC)c2N)cc1 | inconclusive: 11.2 µM [inhibitor, single point] | 
CCOC(=O)[C@H]1[C@H]2COc3ccc(OC)cc3[C@@H]2N2C(=O)CN(Cc3ccc(C)cc3)C(=O)[C@@]12C | inconclusive: 89.1 µM [inhibitor, partial curve, poor fit] | 
COc1ccc(Cc2nc3ccc(C(=O)NCc4cc(Br)ccc4OC)cc3o2)cc1 | inconclusive: 7.08 µM [inhibitor, full curve, poor fit] | 
Cc1ccc(C)c(S(=O)(=O)/N=C2\C=C(NS(=O)(=O)c3ccccc3)C(=O)c3ccccc32)c1 | active: 15.8 µM | 
COc1ccc(-c2cc(C(=O)Nc3ccc(S(=O)(=O)Nc4onc(C)c4C)cc3)c3ccccc3n2)cc1 |  | inactive: -20.8%

SMILES | Potency | activity change, negative = inhibition
COc1ccc(Cl)cc1NC(=O)CSc1nc2ccccc2nc1N1CCCCC1 |  | inactive: -24.1%
Cc1cccc(NS(=O)(=O)c2c(C)nc3scc(C)n3c2=O)c1 |  | inactive: -11.8%
O=C(NCC1CCCO1)c1ccccc1NS(=O)(=O)c1ccc(F)cc1 (stereo not given) |  | inactive: -15.2%
Cn1cc(S(=O)(=O)N2CCCCCC2)cc1C(=O)N1CCN(c2ccc(Cl)cc2)CC1 | inconclusive: 70.8 µM [inhibitor, partial curve, poor fit] | 
N#C/C(=C/c1ccc(N2CCOCC2)o1)C(=O)N1CCOCC1 | inconclusive: 28.2 µM [inhibitor, partial curve] | 
O=C(C#Cc1ccccc1)c1ccco1 | inconclusive: 50.1 µM [inhibitor, partial curve, poor fit] | 
O=C(c1ccc(Cl)cc1)n1nc(-c2ccco2)nc1NCc1cccs1 | inconclusive: 15.8 µM [inhibitor, partial curve] | 
CCOc1ccc(CNC(=O)Cn2c(=O)c3cccn3c3ccc(F)cc32)cc1OC | inconclusive: 50.1 µM [inhibitor, single point] | 
O=C(Nc1ccccc1N1CCOCC1)c1ccccc1NS(=O)(=O)c1ccc(F)cc1 |  | inactive: -2.48%
Cc1ccc(S(=O)(=O)N[C@@H](Cc2ccccc2)C(=O)CCl)cc1 | inconclusive: 15.8 µM [inhibitor, partial curve, poor fit] | 
O=C(O)CCc1ccc(-c2ccccc2)n1-c1cccc(Br)c1 | inconclusive: 7.94 µM [inhibitor, partial curve, poor fit] | 
COc1ccc(N(C(=O)c2snc(C(N)=O)c2N)C(C(=O)NC2CCCC2)c2ccco2)cc1 (stereo not given) | inconclusive: 10 µM [inhibitor, partial curve] | 
O=C1/C(=N\O)Cc2ccccc21 | inconclusive: 0.708 µM [inhibitor, full curve, poor fit] | 
Cc1ccc2nc3cc([N+](=O)[O-])cc([N+](=O)[O-])c3cc2c1 |  | inactive: -28.6%
CCCC(=O)Nc1cc(S(=O)(=O)N2CCOCC2)ccc1N1CCCCC1 | inconclusive: 5.62 µM [inhibitor, full curve, poor fit] | 
Cc1cc(Br)ccc1NC(=O)COc1cc(=O)n(C)c2ccccc12 |  | inactive: -8.22%
CC(C)C[C@H]1CNC(=S)N1CC1CCN(CC2CCCC2)CC1 | inconclusive: 15.8 µM [inhibitor, partial curve] | 
O=C(NCc1ccc(Cl)cc1)NCC(F)(F)F |  | inactive: -17.6%
Cc1ccc(NC(=O)Nc2nc3c(s2)CCCCCC3)cc1C | inconclusive: 35.5 µM [inhibitor, partial curve] | 
Cc1ccc(Cn2c(C(=O)O)c(CNCCc3cccs3)c3ccc(C)cc32)cc1 | inconclusive: 44.7 µM [inhibitor, partial curve, poor fit] | 

In a second layout: results already given.
Cn1cc(S(=O)(=O)N2CCCCCC2)cc1C(=O)N1CCN(c2ccc(Cl)cc2)CC1
  Potency: inconclusive: 70.8 µM [inhibitor, partial curve, poor fit]
N#C/C(=C/c1ccc(N2CCOCC2)o1)C(=O)N1CCOCC1
  Potency: inconclusive: 28.2 µM [inhibitor, partial curve]
O=C(C#Cc1ccccc1)c1ccco1
  Potency: inconclusive: 50.1 µM [inhibitor, partial curve, poor fit]
